# Cleaved PARP after 72 h of treatment

Source: doi:10.1371/journal.pone.0140310, primary screening data, rounded.

All values are for the listed drug together with indole-3-carbinol (4 µM): OCc1c[nH]c2ccccc12

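Human melanoma cell lines in 1,536-well plates were treated with two drugs together for 72 h, then fixed, stained and imaged. The read-out is the fraction of cleaved-PARP-positive nuclei, in % of that fraction in the DMSO control; 200 means twice the control level of this apoptosis marker. Every drug was used at one fixed concentration, the higher of two screened. No replicate spread is given; individual values may be noisy. Basal and induced levels differ widely between cell lines.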
This is part of the screen, not chosen by result.

Partner | SK-MEL-2
COc1ccc(-c2ccc3c(N4CCOCC4)nc(N4C[C@@H](C)O[C@@H](C)C4)nc3n2)cc1CO at 0.1 µM | 239
COc1ccc(C2=N[C@@H](c3ccc(Cl)cc3)[C@@H](c3ccc(Cl)cc3)N2C(=O)N2CCNC(=O)C2)c(OC(C)C)c1 at 0.5 µM | 121
O=C(/C=C/c1cccnc1)NCCCCC1CCN(C(=O)c2ccccc2)CC1 at 0.05 µM | 3880
C=CCn1c(=O)c2cnc(Nc3ccc(N4CCN(C)CC4)cc3)nc2n1-c1cccc(C(C)(C)O)n1 at 0.1 µM | 328
CC(C)(C)c1cnc(CSc2cnc(NC(=O)C3CCNCC3)s2)o1 at 0.05 µM | 486
O=C(Nc1ccccc1)c1cc([N+](=O)[O-])ccc1Cl at 10 µM | 100
O=C(O)C(=O)Nc1sc2c(c1C(=O)O)CCNC2 at 8.33 µM | 129
Cn1cncc1[C@@](N)(c1ccc(Cl)cc1)c1ccc2c(c1)c(-c1cccc(Cl)c1)cc(=O)n2C at 0.05 µM | 280
CO[C@H]1C[C@@H]2CC[C@@H](C)[C@@](O)(O2)C(=O)C(=O)N2CCCC[C@H]2C(=O)O[C@H]([C@H](C)C[C@@H]2CC[C@@H](OCCO)[C@H](OC)C2)CC(=O)[C@H](C)/C=C(\C)[C@@H](O)[C@@H](OC)C(=O)[C@H](C)C[C@H](C)/C=C/C=C/C=C/1C at 0.1 µM | 202
Cc1nc(Nc2ncc(C(=O)Nc3c(C)cccc3Cl)s2)cc(N2CCN(CCO)CC2)n1 at 0.02 µM | 202
CN(NC(=O)CC(=O)NN(C)C(=S)c1ccccc1)C(=S)c1ccccc1 at 0.03 µM | 18.5
Cn1c(Nc2ccc(C(F)(F)F)cc2)nc2cc(Oc3ccnc(-c4ncc(C(F)(F)F)[nH]4)c3)ccc21 at 0.4 µM | 242
Cn1cc(C2=C(c3cn(C4CCN(Cc5ccccn5)CC4)c4ccccc34)C(=O)NC2=O)c2ccccc21 at 4 µM | 118
N#Cc1c(O)c2c(-c3ccc(-c4ccccc4O)cc3)csc2[nH]c1=O at 10 µM | 35.8
COc1ccc(COc2ccc(Cc3cnc(N)nc3N)cc2OC)cc1 at 5 µM | 92.5
Cc1cc([N+](=O)[O-])ccc1NS(=O)(=O)c1cc(Cl)ccc1Cl at 5 µM | 38.0
CCCCCCCCc1ccc(CCC(N)(CO)CO)cc1 at 10 µM | 3130
CC(=O)O[C@@]12CO[C@@H]1C[C@H](O)[C@@]1(C)C(=O)[C@H](O)C3=C(C)[C@@H](OC(=O)[C@H](O)[C@@H](NC(=O)OC(C)(C)C)c4ccccc4)C[C@@](O)([C@@H](OC(=O)c4ccccc4)[C@H]21)C3(C)C at 0.0005 µM | 1040
C[C@]1(c2nc3c(C(N)=O)cccc3[nH]2)CCCN1 at 7 µM | 165
Cc1ccc(Nc2nccc(N(C)c3ccc4c(C)n(C)nc4c3)n2)cc1S(N)(=O)=O at 2 µM | 80.1
COCC[n+]1c2c(n(Cc3cnccn3)c1C)C(=O)c1ccccc1C2=O at 0.002 µM | 285
C[C@@H]1CCN(C(=O)CC#N)C[C@@H]1N(C)c1ncnc2[nH]ccc12 at 5 µM | 66.2
C[C@@H](Oc1cc(-c2cnn(C3CCNCC3)c2)cnc1N)c1c(Cl)ccc(F)c1Cl at 1 µM | 166
Nc1cccc2c1CN(C1CCC(=O)NC1=O)C2=O (configuration not stated) at 5 µM | 174
O=C(Nc1cccc(Cl)c1)Nc1ncc(CCNc2ncnc3ccsc23)s1 at 0.004 µM | 144
CC1(C)NC(=O)N(c2ccc([N+](=O)[O-])c(C(F)(F)F)c2)C1=O at 5 µM | 57.5

Repeated from the top, 2 entries:

| Partner | SK-MEL-2 |
|---|---|
| COc1ccc(-c2ccc3c(N4CCOCC4)nc(N4C[C@@H](C)O[C@@H](C)C4)nc3n2)cc1CO at 0.1 µM | 239 |
| COc1ccc(C2=N[C@@H](c3ccc(Cl)cc3)[C@@H](c3ccc(Cl)cc3)N2C(=O)N2CCNC(=O)C2)c(OC(C)C)c1 at 0.5 µM | 121 |